Test results as given in paper PMC11055877.
No constants are given. Whether binding was seen depends on the method and setting. In cells and extracts the contact can be indirect. Some binding calls cover weakened binding; strength is not graded here.

Chains of the proteins cited; added tags and fusions are not shown.
UniProt Q16254: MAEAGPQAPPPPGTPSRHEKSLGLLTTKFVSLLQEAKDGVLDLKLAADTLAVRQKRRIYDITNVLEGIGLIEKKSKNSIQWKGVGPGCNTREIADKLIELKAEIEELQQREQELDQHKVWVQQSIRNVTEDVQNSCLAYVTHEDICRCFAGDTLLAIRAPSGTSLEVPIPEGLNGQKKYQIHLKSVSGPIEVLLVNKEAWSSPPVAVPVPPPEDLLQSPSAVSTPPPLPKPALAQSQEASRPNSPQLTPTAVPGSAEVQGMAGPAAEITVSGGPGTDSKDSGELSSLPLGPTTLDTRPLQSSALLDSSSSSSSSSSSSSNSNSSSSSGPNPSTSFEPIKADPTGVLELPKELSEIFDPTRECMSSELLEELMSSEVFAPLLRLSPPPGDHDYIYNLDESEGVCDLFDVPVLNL
UniProt Q01094: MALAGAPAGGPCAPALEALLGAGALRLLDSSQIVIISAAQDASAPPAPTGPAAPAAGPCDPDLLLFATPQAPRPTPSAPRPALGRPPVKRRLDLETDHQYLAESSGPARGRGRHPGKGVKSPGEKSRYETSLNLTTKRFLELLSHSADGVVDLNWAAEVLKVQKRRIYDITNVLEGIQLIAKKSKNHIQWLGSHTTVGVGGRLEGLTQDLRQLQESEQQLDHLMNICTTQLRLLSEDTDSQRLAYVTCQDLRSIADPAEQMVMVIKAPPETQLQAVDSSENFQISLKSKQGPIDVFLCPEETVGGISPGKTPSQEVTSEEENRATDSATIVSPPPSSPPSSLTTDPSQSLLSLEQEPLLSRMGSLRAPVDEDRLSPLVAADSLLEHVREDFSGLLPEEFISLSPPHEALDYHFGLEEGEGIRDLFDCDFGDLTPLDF
UniProt Q92830: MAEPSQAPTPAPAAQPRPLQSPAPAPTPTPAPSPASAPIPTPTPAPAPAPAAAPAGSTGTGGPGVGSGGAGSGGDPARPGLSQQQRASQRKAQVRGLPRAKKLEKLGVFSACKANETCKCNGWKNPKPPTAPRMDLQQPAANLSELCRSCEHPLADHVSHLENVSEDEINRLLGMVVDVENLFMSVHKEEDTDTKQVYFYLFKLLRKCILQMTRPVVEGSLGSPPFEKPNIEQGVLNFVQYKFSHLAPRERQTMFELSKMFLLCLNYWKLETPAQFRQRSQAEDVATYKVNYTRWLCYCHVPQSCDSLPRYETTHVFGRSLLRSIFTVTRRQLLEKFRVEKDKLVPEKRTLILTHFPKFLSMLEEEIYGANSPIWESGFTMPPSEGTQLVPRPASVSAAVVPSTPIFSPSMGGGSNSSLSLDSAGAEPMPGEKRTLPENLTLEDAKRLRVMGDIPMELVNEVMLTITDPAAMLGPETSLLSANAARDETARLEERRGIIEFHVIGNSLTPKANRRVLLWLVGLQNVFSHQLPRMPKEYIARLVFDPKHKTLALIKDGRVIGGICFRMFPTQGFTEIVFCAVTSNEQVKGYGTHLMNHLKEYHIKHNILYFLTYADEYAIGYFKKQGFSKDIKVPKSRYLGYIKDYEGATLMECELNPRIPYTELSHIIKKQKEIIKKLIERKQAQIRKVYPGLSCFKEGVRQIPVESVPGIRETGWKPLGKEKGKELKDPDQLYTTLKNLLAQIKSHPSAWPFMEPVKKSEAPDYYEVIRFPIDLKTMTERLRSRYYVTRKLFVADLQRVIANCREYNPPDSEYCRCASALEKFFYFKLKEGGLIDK

What was measured:
[1] = target: E2F4 (human (endogenous in PDAC CSCs)) (UniProt Q16254); test: co-IP; nuclear and chromatin fractions of pancreatic CSCs (Nuclear Lysis Buffer: 50 mM Tris HCl pH 7.5, 100 mM NaCl, 50 mM KCl, 2 mM MgCl2, 1 mM EDTA, 10% glycerol, 0.3% Triton X-100; Benzonase); 5 µg cross-linked antibodies for 12 h at 4 °C; western blot; alternatively the nuclear complex co-IP kit (Active Motif)
[2] = target: E2F1 (human (endogenous in PDAC CSCs)) (UniProt Q01094); test: as above

For “GCN5 histone acetyltransferase (from UniProt Q92830 1-837) (enzyme)”, the binding [1] was “binds” and the binding [2] was “binds”.
